Measurements: PubChem BioAssay (EPA / NIEHS)
Values joined by “and” are separate entries in the source; they are usually repeats but may differ in a detail not shown here. Equal values may be shown once. Inconclusive means that the source gave no clear call. Such entries were picked first, then a sample of the others. A potency beside an inconclusive call is a rough fit, not a confirmed value. Where a structure was tested more than once in an assay, its records may differ in their call. Active and inactive are the calls of the source. Rule for the calls: active = hit-call score of the fitted dose curve at least 0.9, where 1 is the maximum; inconclusive = response in the unintended direction; inactive = score below 0.9.

Assay: TOX21_p53_BLA_p3_viability: Viability Assessment in the Tox21 HCT-116 p53 Agonism Beta-lactamase Assay, Phase 3 (AID 2283593);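 note: cells exposed to compound for 16 h before reading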
Outline: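 HCT116 cells, 4000/well, dosed 5 h after plating by pin transfer (217-fold dilution from DMSO stock) and incubated 16 h at 37C, 5% CO2. Viability read as ATP luminescence with CellTiter-Glo after 30 min at room temperature.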

Row | SMILES | outcome | AC50
1 | CCCCCCOC(=O)c1ccc(O)cc1 | inactive | 
2 | C[N+](C)(C)CCCCCC[N+](C)(C)C |  | inconclusive: 0.748 µM
3 | CC(=O)CC(C)C |  | inconclusive: 46.1 µM
4 | CN(C)CCOc1ccc(/C(=C(/CCCl)c2ccccc2)c2ccccc2)cc1 |  | active: 66.3 µM
5 | CCOC(=O)c1ccccc1C | inactive | 
6 | ClCCCl | inactive | 
7 | CC(C)(c1cc(Br)c(OCCO)c(Br)c1)c1cc(Br)c(OCCO)c(Br)c1 |  | active: 55 µM
8 | CN1[C@@H]2CC(OC(=O)[C@H](CO)c3ccccc3)C[C@H]1[C@@H]1O[C@@H]12 (stereo partly drawn) |  | inconclusive: 9.14 µM and inconclusive: 23 µM
9 | CC(=O)O[C@]1(C(C)=O)CC[C@H]2[C@@H]3C[C@H](C)C4=CC(=O)CC[C@]4(C)[C@H]3CC[C@@]21C |  | inconclusive: 81.9 µM
10 | C#C[C@]1(O)CC[C@H]2[C@@H]3CCC4=Cc5oncc5C[C@]4(C)[C@H]3CC[C@@]21C | inactive | 
11 | CCOC(=S)SSC(=S)OCC | inactive | 
12 | COC(=O)CC(C)CCC=C(C)C (stereo not drawn) | inactive | 
13 | O=C(c1cc(O)c(O)c(O)c1)c1ccc(O)c(O)c1O | inactive | 
14 | CN(C)CCCN1c2ccccc2CCc2ccc(Cl)cc21 |  | inconclusive: 1.44 µM
15 | CCc1ncc(C)[nH]1 |  | inconclusive: 0.0962 µM
16 | CC(C)=CCl | inactive | inconclusive: 46.1 µM
17 | O=C(/C=C/C=C/c1ccc2c(c1)OCO2)N1CCCCC1 |  | inconclusive: 84.1 µM

One compound at a time (already shown).
CCOC(=S)SSC(=S)OCC reads outcome: inactive
CN1[C@@H]2CC(OC(=O)[C@H](CO)c3ccccc3)C[C@H]1[C@@H]1O[C@@H]12 (stereo partly drawn) reads AC50: inconclusive: 9.14 µM and inconclusive: 23 µM

The list continues.

Row | SMILES | outcome | AC50
18 | CC1=C(/C=C/C(C)=C/C=C/C(C)=C/C(=O)O)C(C)(C)CCC1 |  | active: 47.8 µM and inconclusive: 0.0595 nM
19 | COC(=O)c1cccnc1 | inactive | inconclusive: 23 µM
20 | NCC1CCCC(CN)C1 (stereo not drawn) |  | inconclusive: 46.1 µM
21 | O=C(Nc1ccc(Cl)c(Cl)c1)c1cc(Cl)cc(Cl)c1O |  | active: 0.989 µM
22 | Brc1ccc(Oc2ccc(Br)cc2)cc1 |  | inconclusive: 81.5 µM
23 | CC(C)(C)CC(C)(C)c1ccc(OCCOCC[N+](C)(C)Cc2ccccc2)cc1 |  | active: 60.7 µM and active: 23 µM
24 | CCCCCCCCCCCCCCCC(=O)OC/C=C(C)/C=C/C=C(C)/C=C/C1=C(C)CCCC1(C)C | inactive | inconclusive: 23 µM
25 | C=CC(=O)OCCn1c(=O)n(CCOC(=O)C=C)c(=O)n(CCOC(=O)C=C)c1=O | inactive | 
26 | COc1ccc(C(=O)/C(Br)=C\C(=O)O)cc1 |  | active: 74.8 µM
27 | C=CC(=O)OCC(CO)(COCC(COC(=O)C=C)(COC(=O)C=C)COC(=O)C=C)COC(=O)C=C |  | active: 3.91 µM
28 | COC(C)(C)CCCC(C)CC=O (stereo not drawn) |  | inconclusive: 46.1 µM
29 | CNC(=C[N+](=O)[O-])NCCSCc1ccc(CN(C)C)o1 | inactive | 
30 | SCCc1cnccn1 | inactive | 
31 | CC(=O)OCC=C(C)C |  | inconclusive: 32.5 µM
32 | O=S1(=O)CC(Cl)(Cl)C(Cl)(Cl)C1 |  | active: 24.9 µM
33 | CCc1ccc(O)cc1 | inactive | inconclusive: 0.00755 µM
34 | C=CCOC(=O)CCC1CCCCC1 | inactive | 
